Measurements from patent US20240300943A1, “NOVEL SALTS OF HETEROCYCLIC COMPOUND AS PROTEIN KINASE INHIBITOR AND USES THEREOF” (HK INNO.N CORPORATION, priority 2021, published 2024).
Some of these results come from one statement about several compounds together.

Experiment: Measurement of water solubility
Type: physicochemical
Details: saturated solution shaken at room temperature for 24 hours
Description: A liquid phase was taken out of the solution and filtered using a 0.22 μm PVDF filter. The filtered liquid phase was diluted 10-fold for LC analysis.
LC analysis was performed by the following method.

In the case of `C[C@@H]1CN(C(=O)CC#N)CC=C1c1cc(NC(=O)C2CC2)nc2[nH]ccc12` [Example 3, (S)—N-(4-(1-(2-cyanoacetyl)-3-methyl-1,2,3,6-tetrahydropyridin-4-yl)-1H-pyrrolo[2,3-b]pyridin-6-yl)cyclopropanecarboxamide], the Water solubility (listed as phosphate salt) is reported as ≥ 1900 µg/mL.

With `C[C@@H]1CN(C(=O)CC#N)CC=C1c1cc(NC(=O)C2CC2)nc2[nH]ccc12` [Example 4, (S)—N-(4-(1-(2-cyanoacetyl)-3-methyl-1,2,3,6-tetrahydropyridin-4-yl)-1H-pyrrolo[2,3-b]pyridin-6-yl)cyclopropanecarboxamide] the Water solubility (listed as camsylate salt) was ≥ 1900 µg/mL.
